Results are given in words; binding and its absence hold for the method and conditions named. Binding seen in cells or lysates may run through a third protein. Binding calls can cover weak binding; strength is not graded here.
Assays:
WRB (K164D)-HA-NFT-Venus = WRB (K164D)-HA-NFT-Venus (UniProt O00258); test: co-IP
WRB (K164L)-HA-NFT-Venus = WRB (K164L)-HA-NFT-Venus (UniProt O00258); test: co-IP

Row | binding (WRB (K164D)-HA-NFT-Venus) | binding (WRB (K164L)-HA-NFT-Venus) | Substance
1 | binds | binds weakly | BiP (from UniProt P11021 19-654)
2 | binds | no binding | Hrd1 E3 ligase (from UniProt Q86TM6 1-617) (enzyme)

Source: doi:10.1101/843326
